# Test results published in the supplement of paper PMC10849652.
# Sequences of proteins named here, by UniProt entry; tags and fusion partners are left off. A change or cut given only in a name is not applied to a line headed by its entry.
# UniProt P07108: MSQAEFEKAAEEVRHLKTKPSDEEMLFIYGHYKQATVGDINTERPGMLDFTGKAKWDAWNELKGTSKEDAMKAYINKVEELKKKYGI
# UniProt Q9UHQ9: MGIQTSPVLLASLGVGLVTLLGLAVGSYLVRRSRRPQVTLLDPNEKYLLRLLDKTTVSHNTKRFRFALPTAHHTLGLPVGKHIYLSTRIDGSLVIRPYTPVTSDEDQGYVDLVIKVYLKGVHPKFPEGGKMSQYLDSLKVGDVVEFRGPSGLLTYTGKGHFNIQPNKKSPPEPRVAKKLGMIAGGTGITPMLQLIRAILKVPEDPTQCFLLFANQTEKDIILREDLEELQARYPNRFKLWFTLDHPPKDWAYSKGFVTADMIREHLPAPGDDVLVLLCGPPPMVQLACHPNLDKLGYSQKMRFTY
# UniProt Q8WUE5: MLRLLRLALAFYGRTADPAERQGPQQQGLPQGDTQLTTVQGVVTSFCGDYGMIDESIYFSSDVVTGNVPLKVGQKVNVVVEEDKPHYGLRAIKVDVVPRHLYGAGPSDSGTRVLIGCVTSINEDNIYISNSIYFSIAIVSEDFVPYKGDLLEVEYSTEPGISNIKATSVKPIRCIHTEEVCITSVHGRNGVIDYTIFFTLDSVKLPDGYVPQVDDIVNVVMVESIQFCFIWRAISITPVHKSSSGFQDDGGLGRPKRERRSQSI
# UniProt Q13561, whole entry, looked up: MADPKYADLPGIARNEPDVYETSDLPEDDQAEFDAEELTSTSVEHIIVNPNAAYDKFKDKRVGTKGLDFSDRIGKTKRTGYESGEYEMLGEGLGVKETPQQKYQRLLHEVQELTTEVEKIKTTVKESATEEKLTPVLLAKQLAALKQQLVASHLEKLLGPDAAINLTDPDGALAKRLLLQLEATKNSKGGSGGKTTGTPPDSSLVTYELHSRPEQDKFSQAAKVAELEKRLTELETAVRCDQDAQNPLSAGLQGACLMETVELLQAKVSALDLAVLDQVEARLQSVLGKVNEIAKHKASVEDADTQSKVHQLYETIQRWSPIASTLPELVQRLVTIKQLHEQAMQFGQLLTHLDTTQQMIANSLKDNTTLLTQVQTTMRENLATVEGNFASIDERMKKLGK
# UniProt Q7L1T6: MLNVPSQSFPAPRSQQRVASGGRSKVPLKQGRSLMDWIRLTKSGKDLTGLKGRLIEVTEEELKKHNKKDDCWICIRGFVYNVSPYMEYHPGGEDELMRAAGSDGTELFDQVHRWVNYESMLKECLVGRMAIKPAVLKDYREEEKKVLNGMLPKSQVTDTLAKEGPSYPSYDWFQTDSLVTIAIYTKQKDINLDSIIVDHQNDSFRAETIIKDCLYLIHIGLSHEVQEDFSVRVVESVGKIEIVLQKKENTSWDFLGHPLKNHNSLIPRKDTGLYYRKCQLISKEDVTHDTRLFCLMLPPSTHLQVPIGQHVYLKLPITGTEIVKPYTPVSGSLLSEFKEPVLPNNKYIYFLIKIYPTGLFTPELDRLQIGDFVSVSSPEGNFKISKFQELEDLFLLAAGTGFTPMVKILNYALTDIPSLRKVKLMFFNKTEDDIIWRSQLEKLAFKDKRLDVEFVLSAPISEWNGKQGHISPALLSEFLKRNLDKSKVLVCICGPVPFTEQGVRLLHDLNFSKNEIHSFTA
# UniProt Q9NWV4: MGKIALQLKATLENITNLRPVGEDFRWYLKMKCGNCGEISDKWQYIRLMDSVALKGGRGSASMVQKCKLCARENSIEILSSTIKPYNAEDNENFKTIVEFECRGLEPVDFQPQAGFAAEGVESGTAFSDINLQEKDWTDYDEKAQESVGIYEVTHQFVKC
# UniProt Q9UJW0, whole entry, looked up: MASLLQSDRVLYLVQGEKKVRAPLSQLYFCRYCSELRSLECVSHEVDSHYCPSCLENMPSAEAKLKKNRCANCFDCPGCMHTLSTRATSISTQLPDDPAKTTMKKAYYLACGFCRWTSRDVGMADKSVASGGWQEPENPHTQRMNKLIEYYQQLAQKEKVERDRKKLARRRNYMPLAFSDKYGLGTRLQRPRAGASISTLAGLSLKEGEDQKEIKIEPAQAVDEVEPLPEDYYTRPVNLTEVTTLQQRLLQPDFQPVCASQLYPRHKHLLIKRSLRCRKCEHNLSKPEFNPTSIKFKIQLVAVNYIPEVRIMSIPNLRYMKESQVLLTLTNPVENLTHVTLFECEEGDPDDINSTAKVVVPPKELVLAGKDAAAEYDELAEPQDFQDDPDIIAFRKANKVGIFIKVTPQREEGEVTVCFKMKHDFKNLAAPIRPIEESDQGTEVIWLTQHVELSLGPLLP
# UniProt Q9H773: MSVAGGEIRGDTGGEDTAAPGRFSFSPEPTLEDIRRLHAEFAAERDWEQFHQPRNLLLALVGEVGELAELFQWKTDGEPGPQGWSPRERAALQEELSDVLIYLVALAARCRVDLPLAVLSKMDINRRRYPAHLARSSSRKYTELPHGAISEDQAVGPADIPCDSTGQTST
# UniProt Q9BTE1, whole entry, looked up: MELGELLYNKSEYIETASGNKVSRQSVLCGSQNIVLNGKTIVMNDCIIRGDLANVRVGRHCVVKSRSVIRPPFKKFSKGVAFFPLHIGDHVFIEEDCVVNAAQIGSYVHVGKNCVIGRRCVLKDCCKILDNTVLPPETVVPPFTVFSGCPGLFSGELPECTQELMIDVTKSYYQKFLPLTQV
# UniProt Q9NXF7, whole entry, looked up: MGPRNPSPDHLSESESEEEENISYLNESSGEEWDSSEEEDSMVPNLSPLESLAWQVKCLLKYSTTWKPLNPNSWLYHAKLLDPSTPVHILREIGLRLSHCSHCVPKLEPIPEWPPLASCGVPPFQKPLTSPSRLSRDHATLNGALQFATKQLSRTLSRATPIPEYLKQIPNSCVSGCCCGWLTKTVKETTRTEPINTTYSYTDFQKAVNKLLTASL
# UniProt Q9H1C7: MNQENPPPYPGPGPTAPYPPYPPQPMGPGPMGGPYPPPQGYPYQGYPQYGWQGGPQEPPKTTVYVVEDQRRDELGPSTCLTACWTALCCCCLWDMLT
# UniProt Q01459: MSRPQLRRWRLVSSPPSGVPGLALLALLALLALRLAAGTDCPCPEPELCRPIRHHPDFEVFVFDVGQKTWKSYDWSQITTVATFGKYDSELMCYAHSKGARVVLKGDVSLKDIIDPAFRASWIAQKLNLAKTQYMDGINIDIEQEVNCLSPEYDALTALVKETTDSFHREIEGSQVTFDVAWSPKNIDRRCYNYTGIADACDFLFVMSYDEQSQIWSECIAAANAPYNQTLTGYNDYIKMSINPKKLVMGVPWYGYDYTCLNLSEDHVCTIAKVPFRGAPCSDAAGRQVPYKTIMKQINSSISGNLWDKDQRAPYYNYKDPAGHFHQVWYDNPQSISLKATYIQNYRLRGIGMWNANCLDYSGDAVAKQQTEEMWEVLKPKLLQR
# UniProt P10619: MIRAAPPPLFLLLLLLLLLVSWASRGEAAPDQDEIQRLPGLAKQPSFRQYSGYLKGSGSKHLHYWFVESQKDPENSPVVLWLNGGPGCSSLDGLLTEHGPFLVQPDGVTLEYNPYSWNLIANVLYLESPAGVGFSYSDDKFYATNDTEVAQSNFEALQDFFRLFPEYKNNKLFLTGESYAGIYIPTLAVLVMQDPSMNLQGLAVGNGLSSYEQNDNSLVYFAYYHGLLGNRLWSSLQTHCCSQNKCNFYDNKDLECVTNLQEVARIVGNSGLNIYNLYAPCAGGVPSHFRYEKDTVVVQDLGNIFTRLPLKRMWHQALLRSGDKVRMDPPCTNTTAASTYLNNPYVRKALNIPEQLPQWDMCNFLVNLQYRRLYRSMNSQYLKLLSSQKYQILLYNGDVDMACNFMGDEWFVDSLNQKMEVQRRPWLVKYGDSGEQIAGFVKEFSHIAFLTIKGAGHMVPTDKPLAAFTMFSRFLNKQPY
# UniProt Q9UER7, whole entry, looked up: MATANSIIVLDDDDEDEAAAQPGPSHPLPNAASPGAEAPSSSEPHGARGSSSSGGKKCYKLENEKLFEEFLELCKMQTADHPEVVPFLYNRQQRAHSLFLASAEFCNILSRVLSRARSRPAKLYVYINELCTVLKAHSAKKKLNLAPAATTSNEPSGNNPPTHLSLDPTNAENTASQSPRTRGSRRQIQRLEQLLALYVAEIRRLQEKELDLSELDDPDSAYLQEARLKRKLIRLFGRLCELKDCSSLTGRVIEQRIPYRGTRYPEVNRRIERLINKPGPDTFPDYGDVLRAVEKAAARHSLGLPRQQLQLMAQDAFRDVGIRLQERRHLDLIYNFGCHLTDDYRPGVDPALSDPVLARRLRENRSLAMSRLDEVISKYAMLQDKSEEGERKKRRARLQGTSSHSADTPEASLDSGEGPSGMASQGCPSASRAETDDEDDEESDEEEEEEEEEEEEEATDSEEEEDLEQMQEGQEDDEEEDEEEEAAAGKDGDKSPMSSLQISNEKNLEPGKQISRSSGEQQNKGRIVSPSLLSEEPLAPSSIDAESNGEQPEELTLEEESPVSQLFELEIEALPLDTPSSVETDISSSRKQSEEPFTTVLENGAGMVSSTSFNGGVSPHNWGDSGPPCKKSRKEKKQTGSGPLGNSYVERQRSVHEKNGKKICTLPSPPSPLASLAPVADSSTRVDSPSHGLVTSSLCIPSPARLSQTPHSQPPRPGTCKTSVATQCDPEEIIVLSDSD
# UniProt P50461: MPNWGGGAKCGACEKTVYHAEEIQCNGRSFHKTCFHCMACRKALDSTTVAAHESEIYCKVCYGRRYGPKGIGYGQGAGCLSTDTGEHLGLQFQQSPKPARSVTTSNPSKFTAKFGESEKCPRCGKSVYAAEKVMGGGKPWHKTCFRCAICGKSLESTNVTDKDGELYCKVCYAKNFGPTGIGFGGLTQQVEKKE
# UniProt Q7L576: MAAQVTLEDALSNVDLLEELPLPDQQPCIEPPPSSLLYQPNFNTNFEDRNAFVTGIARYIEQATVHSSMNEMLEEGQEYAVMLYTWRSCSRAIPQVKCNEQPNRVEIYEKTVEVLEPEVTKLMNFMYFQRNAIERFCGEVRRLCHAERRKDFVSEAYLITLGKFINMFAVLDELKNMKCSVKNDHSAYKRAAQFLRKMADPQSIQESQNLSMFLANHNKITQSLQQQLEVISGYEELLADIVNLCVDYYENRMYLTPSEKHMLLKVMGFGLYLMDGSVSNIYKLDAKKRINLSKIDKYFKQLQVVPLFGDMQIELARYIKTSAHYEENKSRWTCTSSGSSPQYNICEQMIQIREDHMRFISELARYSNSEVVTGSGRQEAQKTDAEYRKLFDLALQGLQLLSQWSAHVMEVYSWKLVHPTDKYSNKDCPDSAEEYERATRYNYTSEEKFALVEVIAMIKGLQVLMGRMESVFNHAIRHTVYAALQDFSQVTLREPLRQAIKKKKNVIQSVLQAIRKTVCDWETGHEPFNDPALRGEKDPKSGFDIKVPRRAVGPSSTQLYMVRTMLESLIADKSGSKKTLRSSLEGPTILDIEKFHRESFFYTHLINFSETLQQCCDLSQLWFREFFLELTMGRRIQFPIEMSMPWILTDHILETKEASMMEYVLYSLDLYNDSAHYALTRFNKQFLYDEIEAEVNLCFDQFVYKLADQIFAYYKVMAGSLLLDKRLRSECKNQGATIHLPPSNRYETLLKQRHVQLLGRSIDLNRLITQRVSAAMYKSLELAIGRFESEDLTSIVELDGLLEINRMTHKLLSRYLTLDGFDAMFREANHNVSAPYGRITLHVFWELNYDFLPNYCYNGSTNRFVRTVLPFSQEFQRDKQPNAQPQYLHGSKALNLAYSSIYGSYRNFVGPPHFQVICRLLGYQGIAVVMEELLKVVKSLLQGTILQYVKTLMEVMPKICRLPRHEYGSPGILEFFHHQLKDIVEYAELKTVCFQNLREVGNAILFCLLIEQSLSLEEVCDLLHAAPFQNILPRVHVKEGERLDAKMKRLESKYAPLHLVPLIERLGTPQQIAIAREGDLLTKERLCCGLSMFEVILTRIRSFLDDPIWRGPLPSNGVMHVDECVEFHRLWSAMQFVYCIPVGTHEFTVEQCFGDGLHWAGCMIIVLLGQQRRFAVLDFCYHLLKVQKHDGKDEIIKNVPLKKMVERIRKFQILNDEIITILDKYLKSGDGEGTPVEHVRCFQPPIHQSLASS
# UniProt Q9P0U4, whole entry, looked up: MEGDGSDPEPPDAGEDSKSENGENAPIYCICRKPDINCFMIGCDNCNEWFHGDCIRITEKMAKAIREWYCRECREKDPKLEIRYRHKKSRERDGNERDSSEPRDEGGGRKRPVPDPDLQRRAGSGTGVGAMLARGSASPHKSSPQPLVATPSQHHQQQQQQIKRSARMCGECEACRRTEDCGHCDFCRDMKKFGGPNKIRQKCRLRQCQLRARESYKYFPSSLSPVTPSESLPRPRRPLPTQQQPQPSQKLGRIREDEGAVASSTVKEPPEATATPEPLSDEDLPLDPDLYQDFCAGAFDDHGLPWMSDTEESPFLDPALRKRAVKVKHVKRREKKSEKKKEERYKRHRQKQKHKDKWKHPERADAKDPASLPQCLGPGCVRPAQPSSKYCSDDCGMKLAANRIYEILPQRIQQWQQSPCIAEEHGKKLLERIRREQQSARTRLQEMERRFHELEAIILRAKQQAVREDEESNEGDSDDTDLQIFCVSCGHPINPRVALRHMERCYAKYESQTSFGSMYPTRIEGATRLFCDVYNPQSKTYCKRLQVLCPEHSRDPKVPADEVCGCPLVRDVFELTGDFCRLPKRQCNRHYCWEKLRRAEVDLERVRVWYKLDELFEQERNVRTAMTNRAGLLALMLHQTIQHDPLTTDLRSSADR
# Some of the results follow.
# Experiments:
# Experiment in all cases: log2 fold change, soluble protein after heating vs DMSO (PISA); higher = thermal stabilisation; K562 cells, 10 uM, 30 min; active = over 0.2 and 3.5 SD of the protein, either way, in both replicates (recomputed)
# [1] = compound: CS(=O)(=O)c1ccc(-c2cnc(N)c(C(=O)Nc3ccccc3)n2)cc1
# In short: (§1)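 K562 cells at 2×10^6 cells/mL were exposed to 10 μM compound for 30 min, then aliquots were heated for 3 min across 48°C-58°C, pooled, and extracted in PBS containing 0.5% NP-40 at 4°C. The supernatant after 21,000xg for 90 min was taken as soluble protein and measured by TMTpro 16plex LC-MS/MS with channel sums equalised. Thermal stability is reported relative to control samples, with values from duplicates. Fold changes are given on a log2 scale.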
# crizotinib = compound: C[C@@H](Oc1cc(-c2cnn(C3CCNCC3)c2)cnc1N)c1c(Cl)ccc(F)c1Cl [crizotinib]
# In short: as §1
# [2] = compound: C[C@@H]1COCCN1C2=NC(=NC(=C2)C3(CC3)S(=O)(=O)C)C4=C5C=CNC5=CC=C4
# In short: as §1
# [3] = compound: C[C@H](C1=CC=C(C=C1)C(=O)NC2=C3C=CNC3=NC=C2)N
# In short: as §1
# duvelisib = compound: C[C@H](Nc1ncnc2nc[nH]c12)c1cc2cccc(Cl)c2c(=O)n1-c1ccccc1 [duvelisib]
# In short: as §1
# gandotinib = compound: Cc1cc(Nc2cc(CN3CCOCC3)c3nc(C)c(Cc4ccc(Cl)cc4F)n3n2)n[nH]1 [gandotinib]
# In short: as §1
# tozasertib = compound: Cc1cc(Nc2cc(N3CCN(C)CC3)nc(Sc3ccc(NC(=O)C4CC4)cc3)n2)n[nH]1 [tozasertib]
# In short: as §1
# [4] = compound: Cc1cc(SCc2sc(-c3ccc(C(F)(F)F)cc3)nc2C)ccc1OCC(=O)O
# In short: as §1
# doramapimod = compound: Cc1ccc(-n2nc(C(C)(C)C)cc2NC(=O)Nc2ccc(OCCN3CCOCC3)c3ccccc23)cc1 [doramapimod]
# In short: as §1
# ispinesib = compound: Cc1ccc(C(=O)N(CCCN)[C@@H](c2nc3cc(Cl)ccc3c(=O)n2Cc2ccccc2)C(C)C)cc1 [ispinesib]
# In short: as §1
Target,log2 fold change [1],log2 fold change (crizotinib),log2 fold change [2],log2 fold change [3],log2 fold change (duvelisib),log2 fold change (gandotinib),log2 fold change (tozasertib),log2 fold change [4],log2 fold change (doramapimod),log2 fold change (ispinesib)
DBI isoform 5 (UniProt P07108),inactive: 0.027,inactive: 0.188,inactive: 0.139,inactive: -0.028,inactive: 0.135,inactive: 0.116,inactive: 0.049,inactive: -0.013,inactive: 0.031,inactive: 0.122
CUL2 isoform 2 (UniProt Q13617),inactive: -0.006,inactive: -0.002,inactive: 0.057,inactive: -0.056,inactive: 0.015,inactive: -0.049,inactive: 0.005,inactive: 0.026,inactive: -0.03,inactive: 0.064
CYB5R1 (UniProt Q9UHQ9),inactive: 0.032,inactive: 0.043,inactive: 0.042,inactive: -0.012,inactive: 0.025,inactive: -0.043,inactive: -0.004,inactive: -0.013,inactive: -0.066,inactive: -0.014
CT55 (UniProt Q8WUE5),inactive: 0.022,inactive: -0.025,inactive: 0,inactive: -0.048,inactive: 0.045,inactive: -0.169,inactive: -0.019,inactive: -0.01,inactive: 0.037,
DCTN2 isoform 2 (UniProt Q13561),inactive: -0.001,inactive: 0.037,inactive: 0.008,inactive: -0.021,inactive: -0.017,inactive: -0.055,inactive: 0.077,inactive: 0.05,inactive: -0.019,inactive: 0.006
DCP1A (UniProt Q9NPI6),inactive: -0.134,inactive: -0.285,inactive: -0.05,inactive: 0.169,inactive: -0.049,inactive: 0.063,inactive: 0.2,inactive: 0.149,inactive: 0.052,inactive: -0.058
CYB5R4 (UniProt Q7L1T6),inactive: -0.013,inactive: -0.008,inactive: 0.048,inactive: -0.041,inactive: 0.07,inactive: -0.006,inactive: -0.062,inactive: -0.019,inactive: 0.001,inactive: 0.009
CZIB (UniProt Q9NWV4),inactive: 0.025,inactive: 0.046,inactive: 0.046,inactive: -0.117,inactive: 0.021,inactive: -0.044,inactive: 0.025,inactive: -0.007,inactive: -0.032,inactive: 0.089
DCTN4 (UniProt Q9UJW0),inactive: -0.107,inactive: 0.084,inactive: -0.005,inactive: 0.026,inactive: 0.036,inactive: -0.034,inactive: -0.021,inactive: -0.007,inactive: 0.011,inactive: 0.027
CTR9 (UniProt Q6PD62),inactive: -0.193,inactive: 0.153,inactive: 0.053,,inactive: 0.047,inactive: -0.012,,inactive: 0.134,inactive: 0.082,inactive: -0.131
DCAF13 (UniProt Q9NV06),inactive: -0.086,inactive: 0.067,active: -0.538,inactive: 0.273,,inactive: 0.221,,inactive: -0.033,inactive: 0.173,inactive: -0.1
CUX1 isoform 2 (UniProt Q13948),inactive: -0.217,inactive: -0.063,inactive: 0.029,inactive: -0.063,,inactive: -0.046,,inactive: 0.002,inactive: -0.015,inactive: -0.008
DCTPP1 (UniProt Q9H773),inactive: -0.025,inactive: 0.142,inactive: 0.179,inactive: -0.177,,inactive: -0.004,,inactive: -0.064,inactive: -0.002,inactive: 0.203
CTSB (UniProt P07858),inactive: 0.048,active: -0.508,inactive: 0.057,inactive: -0.042,,inactive: 0.006,,inactive: 0.015,inactive: -0.014,active: -0.403
DCAF10 (UniProt Q5QP82),inactive: 0.036,inactive: 0.007,inactive: 0.037,inactive: 0.017,,inactive: -0.15,,inactive: -0.098,inactive: 0.055,inactive: -0.059
DCAF6 isoform 3 (UniProt Q58WW2),inactive: -0.008,inactive: 0.132,inactive: 0.026,inactive: -0.054,,inactive: -0.024,,inactive: -0.058,inactive: 0.056,inactive: 0.027
DCTN1 isoform 4 (UniProt Q14203),inactive: -0.013,inactive: -0.112,inactive: 0.015,inactive: 0.131,,inactive: 0.016,,inactive: 0.111,inactive: 0.088,inactive: -0.141
DCTN5 (UniProt Q9BTE1),inactive: 0.006,inactive: 0.048,,inactive: -0.08,inactive: 0.023,inactive: -0.024,inactive: -0.033,inactive: -0.066,inactive: -0.009,inactive: 0.066

Target,log2 fold change [1],log2 fold change (crizotinib),log2 fold change [2],log2 fold change [3],log2 fold change (duvelisib),log2 fold change (gandotinib),log2 fold change (tozasertib),log2 fold change [4],log2 fold change (doramapimod),log2 fold change (ispinesib)
DCAF16 (UniProt Q9NXF7),inactive: 0.058,inactive: 0.001,inactive: 0.176,inactive: -0.103,,inactive: 0.069,,inactive: 0.17,inactive: -0.005,inactive: 0.036
CYSTM1 (UniProt Q9H1C7),inactive: -0.038,inactive: -0.344,,inactive: 0.032,inactive: -0.088,,inactive: -0.03,inactive: -0.134,inactive: -0.007,inactive: -0.185
CTBS (UniProt Q01459),inactive: -0.05,inactive: -0.166,inactive: -0.078,inactive: 0.04,,inactive: -0.078,,inactive: -0.018,inactive: 0.009,inactive: -0.092
CYP2S1 isoform 2 (UniProt Q96SQ9),inactive: -0.121,inactive: 0.125,,inactive: -0.038,inactive: 0.632,inactive: -0.146,,inactive: 0.207,inactive: 0.121,inactive: -0.047
CYP46A1 (UniProt Q9Y6A2),inactive: -0.055,inactive: 0.078,,inactive: 0.2,inactive: 0.039,inactive: 0.006,inactive: -0.081,inactive: -0.032,inactive: -0.068,inactive: -0.325
CTSZ (UniProt Q9UBR2),inactive: -0.001,inactive: -0.007,inactive: 0.021,inactive: -0.033,,inactive: 0.03,,inactive: -0.037,inactive: 0.05,active: -0.481
CTSA (UniProt P10619),inactive: 0.032,active: -0.563,inactive: 0.002,inactive: -0.036,,inactive: 0.043,,inactive: 0.003,inactive: 0.009,active: -0.237
CSTF2 (UniProt P33240),inactive: 0.016,inactive: 0.075,inactive: 0.14,inactive: -0.042,,inactive: 0.048,,inactive: -0.011,inactive: 0.028,inactive: 0.068
CTSS (UniProt P25774),inactive: -0.007,inactive: 0.063,,inactive: 0.059,,inactive: 0.018,,inactive: 0.045,inactive: 0.043,inactive: 0.049
CTSH (UniProt P09668),inactive: 0.032,active: -0.249,inactive: 0.074,inactive: -0.02,,inactive: 0.031,,inactive: -0.068,inactive: 0.023,inactive: -0.221
DAB2 (UniProt P98082),inactive: -0.04,inactive: -0.099,inactive: 0.049,inactive: -0.052,,inactive: -0.021,,inactive: 0.069,inactive: 0.022,inactive: -0.091
DAXX (UniProt Q9UER7),inactive: 0.154,inactive: 0.098,,inactive: 0.106,,inactive: 0.313,,inactive: 0.006,inactive: 0,inactive: -0.062
CSRP3 (UniProt P50461),inactive: 0.015,inactive: 0.077,,inactive: 0.018,,inactive: 0.007,inactive: -0.051,,inactive: -0.201,inactive: -0.07
CYFIP1 (UniProt Q7L576),inactive: 0.038,inactive: -0.029,inactive: 0.063,inactive: -0.042,,inactive: -0.079,,inactive: 0.038,inactive: -0.026,inactive: 0.031
CSTF3 (UniProt Q12996),inactive: 0.004,inactive: -0.07,inactive: 0.025,inactive: 0.019,,inactive: 0,,inactive: -0.031,inactive: -0.022,inactive: 0.082
CWC27 (UniProt Q6UX04),inactive: 0.03,inactive: 0.14,inactive: 0.145,inactive: -0.001,,inactive: 0.033,,inactive: 0.169,inactive: -0.091,inactive: -0.017
CXXC1 isoform 2 (UniProt Q9P0U4),inactive: -0.001,inactive: 0.091,,inactive: 0.179,inactive: 0.06,inactive: 0.006,inactive: -0.218,inactive: -0.062,inactive: -0.068,

# Random excerpt: 2 entries already listed.
Target,log2 fold change [1],log2 fold change (crizotinib),log2 fold change [2],log2 fold change [3],log2 fold change (duvelisib),log2 fold change (gandotinib),log2 fold change (tozasertib),log2 fold change [4],log2 fold change (doramapimod),log2 fold change (ispinesib)
CYSTM1 (UniProt Q9H1C7),inactive: -0.038,inactive: -0.344,,inactive: 0.032,inactive: -0.088,,inactive: -0.03,inactive: -0.134,inactive: -0.007,inactive: -0.185
DAXX (UniProt Q9UER7),inactive: 0.154,inactive: 0.098,,inactive: 0.106,,inactive: 0.313,,inactive: 0.006,inactive: 0,inactive: -0.062
